# Reference: patent publication US20090253661A1, “OCULAR AGENTS” (Gholam A. Peyman, priority 2008, published 2009)
# For at least one compound, name, drawing or mass did not settle the structure.
# System: corneal scarring
# Experiment: Corneal scarring after 8.00 diopter PRK in rabbits, slit lamp photography
# Format: in vivo
# Details: 2% v/v eye drops at least once a day, 30 days of treatment, assessed day 30 to day 45
structure (smiles),measurement,value
C[C@H]1c2cccc(O)c2C(=O)C2=C(O)[C@]3(O)C(=O)C(C(N)=O)=C(O)[C@@H](N(C)C)[C@@H]3[C@@H](O)[C@@H]21 [doxycycline],corneal scarring,reduced corneal scarring
